Test results taken from article PMC5395654.
Results are given in words; binding and its absence hold for the method and conditions named. In cells and extracts the contact can be indirect. Some entries that bind do so weakly or less than the wild type.

Sequences of proteins named here, by UniProt entry; tags and fusion partners are left off.
UniProt Q9HCE7: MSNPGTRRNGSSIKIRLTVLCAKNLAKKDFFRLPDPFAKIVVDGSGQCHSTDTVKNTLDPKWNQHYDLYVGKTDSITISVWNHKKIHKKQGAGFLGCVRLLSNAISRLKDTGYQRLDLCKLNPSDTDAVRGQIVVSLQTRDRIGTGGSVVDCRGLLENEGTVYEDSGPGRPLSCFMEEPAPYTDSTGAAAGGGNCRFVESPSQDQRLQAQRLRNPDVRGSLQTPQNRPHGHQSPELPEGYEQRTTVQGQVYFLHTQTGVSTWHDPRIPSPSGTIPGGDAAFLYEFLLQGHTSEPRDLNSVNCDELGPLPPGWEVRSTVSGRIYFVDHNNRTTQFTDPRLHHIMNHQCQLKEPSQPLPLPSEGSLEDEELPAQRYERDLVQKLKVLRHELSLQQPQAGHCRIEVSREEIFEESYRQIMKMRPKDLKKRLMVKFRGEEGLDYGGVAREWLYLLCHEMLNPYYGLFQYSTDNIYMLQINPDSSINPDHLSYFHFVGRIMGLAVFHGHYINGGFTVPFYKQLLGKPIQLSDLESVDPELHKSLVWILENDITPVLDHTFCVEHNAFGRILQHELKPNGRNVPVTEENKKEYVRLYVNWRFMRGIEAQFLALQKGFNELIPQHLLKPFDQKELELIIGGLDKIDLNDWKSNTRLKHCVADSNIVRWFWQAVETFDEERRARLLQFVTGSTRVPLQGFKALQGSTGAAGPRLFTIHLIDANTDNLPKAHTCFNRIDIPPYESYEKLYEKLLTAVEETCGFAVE
UniProt P46940: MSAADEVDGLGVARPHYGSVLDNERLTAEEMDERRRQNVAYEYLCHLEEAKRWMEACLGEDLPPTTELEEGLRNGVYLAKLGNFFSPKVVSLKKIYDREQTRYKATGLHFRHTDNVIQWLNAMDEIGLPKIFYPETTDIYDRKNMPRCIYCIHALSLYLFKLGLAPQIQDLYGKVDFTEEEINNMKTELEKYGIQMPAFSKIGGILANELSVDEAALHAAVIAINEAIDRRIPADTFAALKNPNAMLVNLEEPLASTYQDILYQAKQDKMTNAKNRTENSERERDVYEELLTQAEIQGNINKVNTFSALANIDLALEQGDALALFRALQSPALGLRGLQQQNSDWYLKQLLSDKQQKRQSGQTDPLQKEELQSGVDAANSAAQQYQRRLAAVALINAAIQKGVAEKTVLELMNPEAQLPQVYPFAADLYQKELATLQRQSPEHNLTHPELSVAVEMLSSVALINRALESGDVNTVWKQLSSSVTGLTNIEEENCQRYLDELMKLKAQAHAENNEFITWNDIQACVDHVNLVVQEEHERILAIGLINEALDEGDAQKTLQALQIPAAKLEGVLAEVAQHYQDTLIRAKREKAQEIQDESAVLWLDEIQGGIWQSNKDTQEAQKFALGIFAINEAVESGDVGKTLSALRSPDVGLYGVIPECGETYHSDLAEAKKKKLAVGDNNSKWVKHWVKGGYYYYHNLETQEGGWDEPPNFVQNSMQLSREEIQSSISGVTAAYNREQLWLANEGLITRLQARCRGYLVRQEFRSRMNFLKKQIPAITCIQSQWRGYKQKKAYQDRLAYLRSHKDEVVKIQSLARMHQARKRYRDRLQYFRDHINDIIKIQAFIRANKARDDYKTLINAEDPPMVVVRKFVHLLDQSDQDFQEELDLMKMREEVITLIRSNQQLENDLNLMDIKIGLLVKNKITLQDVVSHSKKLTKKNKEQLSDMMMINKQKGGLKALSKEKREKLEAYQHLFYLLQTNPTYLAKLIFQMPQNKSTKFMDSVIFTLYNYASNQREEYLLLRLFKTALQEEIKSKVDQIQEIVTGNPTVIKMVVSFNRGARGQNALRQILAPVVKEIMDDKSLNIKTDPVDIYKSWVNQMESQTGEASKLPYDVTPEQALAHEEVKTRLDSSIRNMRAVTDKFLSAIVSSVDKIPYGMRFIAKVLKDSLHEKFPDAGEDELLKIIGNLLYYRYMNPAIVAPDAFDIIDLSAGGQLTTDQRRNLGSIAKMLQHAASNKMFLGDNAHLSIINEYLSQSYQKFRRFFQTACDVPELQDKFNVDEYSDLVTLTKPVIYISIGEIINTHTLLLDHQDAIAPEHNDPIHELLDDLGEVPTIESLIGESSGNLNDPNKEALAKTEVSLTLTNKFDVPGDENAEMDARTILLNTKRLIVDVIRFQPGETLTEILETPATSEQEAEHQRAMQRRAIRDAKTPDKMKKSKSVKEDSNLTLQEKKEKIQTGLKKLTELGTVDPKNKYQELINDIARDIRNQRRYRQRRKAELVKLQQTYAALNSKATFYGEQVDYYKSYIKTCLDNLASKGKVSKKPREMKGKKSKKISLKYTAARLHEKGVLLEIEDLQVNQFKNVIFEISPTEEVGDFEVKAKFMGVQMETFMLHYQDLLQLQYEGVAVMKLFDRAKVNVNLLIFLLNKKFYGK

Biological target: SMAD specific E3 ubiquitin protein ligase 1 (Smurf1) (human (endogenous in HBMEC)) (UniProt Q9HCE7)
Assay: co-IP; HBMEC lysate precipitated with anti-Smurf1 antibody (IgG isotype control); Western blot with anti-IQGAP1

In the case of “IQ motif containing GTPase activating protein 1 (IQGAP1) (from UniProt P46940 1-1657)”, the binding was “binds”.
